The assay deals with P388 leukemia ip, CD2F1 mice, survival T/C. The assay is described as follows: NCI In Vivo Anticancer Drug Screen. Data for tumor model P388 Leukemia (intraperitoneal) in CD2F1 (CDF1) mice. The settings on record: T/C endpoint: median survival time, higher T/C = longer survival.
The mark [1] stands for this setting: dose: 100.0 mg/kg/injection, schedule: Q01DX005 (ip), vehicle: saline with Tween-80.
Where [2] appears, read: dose: 200.0 mg/kg/injection, schedule: Q01DX005 (ip), vehicle: saline with Tween-80.
The mark [3] stands for this setting: dose: 200.0 mg/kg/injection, schedule: Q04DX002 (ip), vehicle: saline with Tween-80.
Where [4] appears, read: dose: 400.0 mg/kg/injection, schedule: Q04DX002 (ip), vehicle: saline with Tween-80.
Setting [5] is: dose: 200.0 mg/kg/injection, schedule: Q01DX009 (ip), vehicle: saline.
Setting [6] is: dose: 25.0 mg/kg/injection, schedule: Q01DX005 (ip), vehicle: Klucel (hydroxypropylcellulose) (HPC).
The mark [7] stands for this setting: dose: 50.0 mg/kg/injection, schedule: Q01DX005 (ip), vehicle: Klucel (hydroxypropylcellulose) (HPC).
Setting [8] is: dose: 100.0 mg/kg/injection, schedule: Q01DX005 (ip), vehicle: Klucel (hydroxypropylcellulose) (HPC).
[9] abbreviates: dose: 200.0 mg/kg/injection, schedule: Q01DX005 (ip), vehicle: Klucel (hydroxypropylcellulose) (HPC).
Setting [10] is: dose: 50.0 mg/kg/injection, schedule: Q01DX009 (ip), vehicle: Klucel (hydroxypropylcellulose) (HPC).
[11] abbreviates: dose: 100.0 mg/kg/injection, schedule: Q01DX009 (ip), vehicle: Klucel (hydroxypropylcellulose) (HPC).
[12] abbreviates: dose: 200.0 mg/kg/injection, schedule: Q01DX009 (ip), vehicle: Klucel (hydroxypropylcellulose) (HPC).
The mark [13] stands for this setting: dose: 50.0 mg/kg/injection, schedule: Q01DX009 (ip), vehicle: saline.
[14] abbreviates: dose: 100.0 mg/kg/injection, schedule: Q01DX009 (ip), vehicle: saline.

The list shows only some results of the screen, not a fair sample: it gathers tests that were run many times, whatever their T/C, doses with no T/C, and many T/C values between a quarter and a half above the control. Further doses and runs are listed elsewhere. T/C: endpoint of the treated group in % of that of the vehicle group. Some doses have a count of surviving animals in place of a T/C: the source files T/C as zero there, which appears to mark a toxic dose or a test without result, not a measured value. Some doses without a T/C left all or most animals alive at the check, yet need not have been tolerated: survival well below the control is almost never listed, so the zero probably covers shortened survival too. Survivors were counted at the toxicity check, usually on the fifth day, unless a day is given; later deaths do not show. Schedule codes are those of the source, read here as Q, the interval in days (D) or hours (H), X, the number of doses. Some doses were run more than once; their values stand side by side, smallest first. For survival time, this PubChem deposit counts one and a half times the control or more as active, and values a quarter to a half above the control carry no call in these data; other NCI protocols may use other cut-offs. Some T/C values are followed by the survivors on the day toxicity was checked, most often the fifth; where none is given, no animal had died by that day.

Consider `COc1ccc(C2C3=C(CCCC3=O)Oc3cc4c(cc32)OCO4)cc1` (centres undefined), for which the survivor count reads like this: (dose: 120.0 mg/kg/injection, schedule: Q01DX005 (ip), vehicle: saline with Tween-80) 6 of 6; (dose: 240.0 mg/kg/injection, schedule: Q01DX005 (ip), vehicle: saline with Tween-80) 6 of 6.
As to `O=C(O)C(c1ccccc1)C1CCCCC1C1CCCCC1` (centres undefined), the survivor count by setting is: under setting [1], 5 of 5; under setting [2], 5 of 5.
With `CC(C)N=C(C1=C(O)c2ccccc2C1=O)c1ccccc1`, the survivor count runs as follows: under setting [3], 3 of 6; under setting [4], 0 of 6.
For `C(=C/c1cc2ccc(C3=NCCN3)cc2o1)/c1cc2ccc(C3=NCCN3)cc2[nH]1`, the T/C (dose: 25.0 mg/kg/injection, schedule: Q04DX003 (ip), vehicle: suspension in saline) was 139 % of control. The survivor count (dose: 200.0 mg/kg/injection, schedule: Q04DX003 (ip), vehicle: suspension in saline) is 3 of 6 and the survivor count (dose: 400.0 mg/kg/injection, schedule: Q04DX003 (ip), vehicle: suspension in saline) is reported as 0 of 6.
`CCCC1CN2CCc3cc(OC)c(OC)cc3C2CC1=O` (centres undefined): the T/C under setting [5] is 128 % of control [5 of 6 alive].
As for `C=Cn1ccnc1C.C=Cn1ccnc1C.CC(=O)CC(C)=O.CC(=O)CC(C)=O.[Co]`, the survivor count (dose: 100.0 mg/kg/injection, schedule: Q04DX003 (ip), vehicle: saline) was 5 of 6.
On to `C=C1C(=O)O[C@H]2/C=C(/C)C3=CC(=O)[C@@](C)(C[C@@H](OC(=O)/C(C)=C\C)C12)O3` (some centres undefined), for which the survivor count is, setting by setting: under setting [6], 4 of 6; under setting [7], 1 of 6; under setting [8], 0 of 6; under setting [9], 0 of 6.
As to `CCN(CC)CC.[CH-]1CCCCC1.[CH-]1CCCCC1.[CH-]1CCCCC1.[Cl-].[I-].[Sn+4]`, the survivor count (dose: 12.0 mg/kg/injection, schedule: Q01DX005 (ip), vehicle: Klucel (hydroxypropylcellulose) (HPC)) is 2 of 6; the survivor count under setting [6] is reported as 0 of 6; the survivor count under setting [7] was 0 of 6; the survivor count under setting [8] was 0 of 6; the survivor count under setting [9] was 0 of 6.
For `N=C1C=CC(=C(c2ccc(N)cc2)c2ccc(N)cc2)C=C1`, the T/C (dose: 1.56 mg/kg/injection, schedule: Q01DX005 (ip), vehicle: saline with Tween-80) was 130 % of control; the T/C (dose: 3.12 mg/kg/injection, schedule: Q01DX005 (ip), vehicle: saline with Tween-80) is 139 % of control; the T/C (dose: 3.12 mg/kg/injection, schedule: Q01DX005 (ip), vehicle: saline) is 125 % of control; the T/C (dose: 6.25 mg/kg/injection, schedule: Q01DX005 (ip), vehicle: saline) was 129 % of control. Moreover, the survivor count was 5 of 5 (dose: 12.5 mg/kg/injection, schedule: Q01DX005 (ip), vehicle: saline); 0 of 5 (dose: 50.0 mg/kg/injection, schedule: Q01DX005 (ip), vehicle: saline with Tween-80); 0 of 5 under setting [1]; 0 of 5 under setting [2].
For the compound `CN1CCC(=C2c3ccccc3Oc3ncccc32)CC1`, the survivor count is listed as 2 of 6 (dose: 100.0 mg/kg/injection, schedule: Q01DX009 (ip), vehicle: saline with Tween-80) and 0 of 6 (dose: 200.0 mg/kg/injection, schedule: Q01DX009 (ip), vehicle: saline with Tween-80).
On to `CN(C/C=C/CN(C)N=O)N=O`, for which, under setting [10], the T/C is 144 % of control. The survivor count was 6 of 6 under setting [11] and 2 of 6 under setting [12].
Regarding `COC(=O)Nc1ccc(C2OCCN2C(=O)Nc2ccc(Cl)cc2)cc1` (centres undefined), the survivor count under setting [2] was 5 of 6.
For `CCC[CH2][Sn]([CH3])([CH3])[CH2]CC[N+](C)(C)C`, the survivor count under setting [13] was 3 of 6, the survivor count under setting [14] was 0 of 6 and the survivor count under setting [5] was 0 of 6.
Regarding `O=C1C(c2ccccc2)C2NC(C1c1ccccc1)C([N+](=O)[O-])C=C2[N+](=O)[O-]` (centres undefined), the survivor count (dose: 12.5 mg/kg/injection, schedule: Q01DX001 (ip), vehicle: Klucel (hydroxypropylcellulose) (HPC)) was 1 of 6.
Turning to `COc1cccc2c1C(=O)c1c(O)c3c(c(O)c1C2=O)C[C@@](O)(C(C)=O)C[C@@H]3OC1CC(N(CCO)Cc2ccccc2)C(O)C(C)O1` (some centres undefined), the T/C by setting is: (dose: 16.0 mg/kg/injection, schedule: Q04DX003 (ip), vehicle: water) 130 % of control; (dose: 25.0 mg/kg/injection, schedule: Q04DX003 (ip), vehicle: water) 129 % of control.
As for `C(/CSC/C=N/Nc1ccccc1)=N\Nc1ccccc1`, the survivor count under setting [5] was 6 of 6.
As to `Cc1ccccc1N(CC1CO1)CC1CO1` (centres undefined), the T/C (dose: 50.0 mg/kg/injection, schedule: Q01DX009 (ip), vehicle: acetone) is 140 % of control; the T/C under setting [13] is 128 % of control [5 of 6 alive]; the T/C under setting [14] was 146 % of control; the T/C (dose: 200.0 mg/kg/injection, schedule: Q01DX009 (ip), vehicle: acetone) is 137 % of control.
Turning to `Cn1c2nc3ccccc3c-2nc2ccccc21`, the survivor count is, setting by setting: (dose: 12.5 mg/kg/injection, schedule: Q01DX009 (ip), vehicle: water) 6 of 6; (dose: 25.0 mg/kg/injection, schedule: Q01DX009 (ip), vehicle: water) 6 of 6.
Regarding `CC(=O)SCC1C(=O)CCCC1=O`, the survivor count runs as follows: (dose: 100.0 mg/kg/injection, schedule: Q04DX003 (ip), vehicle: saline with Tween-80) 3 of 6 and 4 of 6; (dose: 200.0 mg/kg/injection, schedule: Q04DX003 (ip), vehicle: saline with Tween-80) 0 of 6; (dose: 400.0 mg/kg/injection, schedule: Q04DX003 (ip), vehicle: saline with Tween-80) 0 of 6.
Consider `COc1cc2c(cc1OC)C(O)C1CCCNC1C2` (centres undefined), for which the survivor count (dose: 100.0 mg/kg/injection, schedule: Q04DX002 (ip), vehicle: saline) is recorded as 1 of 6.
Regarding `C#CC1CC2C3CCC4=CC(=O)CCC4(C)C3CCC2(C)C1N(C)C` (centres undefined), the survivor count is on record as 3 of 6 under setting [7], 0 of 6 under setting [8] and 0 of 6 under setting [9].
Take `O=[N+]([O-])c1cccnc1S(=O)(=O)c1ccccn1`: the survivor count runs as follows: (dose: 25.0 mg/kg/injection, schedule: Q01DX009 (ip), vehicle: Klucel (hydroxypropylcellulose) (HPC)) 0 of 6; under setting [10], 6 of 6; under setting [11], 0 of 6; under setting [12], 0 of 6.
On to `CN(CCOS(C)(=O)=O)CCOS(C)(=O)=O`, for which the T/C (dose: 0.99 mg/kg/injection, schedule: Q04DX003 (ip), vehicle: saline) is 131 % of control. The survivor count is on record as 6 of 6 (dose: 1.5 mg/kg/injection, schedule: Q04DX003 (ip), vehicle: saline) and 6 of 6 (dose: 2.25 mg/kg/injection, schedule: Q04DX003 (ip), vehicle: saline).
With `COC(=O)C#CCO`, the survivor count is 0 of 5 and 3 of 6 (dose: 100.0 mg/kg/injection, schedule: Q01DX009 (ip), vehicle: water); 0 of 6 (dose: 200.0 mg/kg/injection, schedule: Q01DX009 (ip), vehicle: water).
`CCC(=O)[O][Bi]([c]1ccccc1)[c]1ccccc1`: the survivor count under setting [8] was 0 of 6. In addition, under setting [9], the T/C was 131 % of control [4 of 6 alive] and the survivor count was 0 of 6.
Consider `CN(C)c1ccc2cc(-n3nnc4cc([N+](=O)[O-])ccc43)c(=O)oc2c1`, for which the survivor count (dose: 100.0 mg/kg/injection, schedule: Q04DX002 (ip), vehicle: saline with Tween-80) was 6 of 6; the survivor count under setting [3] is recorded as 6 of 6; the survivor count under setting [4] is 6 of 6.

Source of the values: PubChem BioAssay AID330 (DTP/NCI, 2004).
